In US20170233637A1, “METHODS FOR INHIBITING METAL CORROSION” (OHIO UNIVERSITY, priority 2014, published 2017):

Key:
[1] = VCI screening in bulk solution (BLC rate by linear polarization resistance, OCP, solution pH); conditions: for Measured pH of solution: 1 wt % NaCl, 400 ppmV VCI candidate, 3.91 without VCI
Description: Other measurements of the effectiveness of the VCI composition to inhibit corrosion may be derived from Open Circuit Potential (OCP) and Linear Polarization Resistance (Rp) experiments. In the volatile thiol screening test, a potentiostat was used to measure the Rp and the OCP of the ferrous metal sample. Corrosion rate in the water phase (BLC rate) is proportional to the corrosion current density (icorr), which was then calculated by using a B constant value of 0.026 V/decade (icorr=B/Rp/S in which S is surface area of the sample).
A three electrode system was used in which an X65 rotating cylinder electrode (1000 RPM) was the working electrode 12, a Pt wire was used as counter electrode 14, and Ag/AgCl as the reference electrode 16. A pH probe 18 was used to measure the pH of the solution before and after adding the VCI candidates. The experiments were performed at 25° C. and 1 bar total pressure (pCO2=0.96 bar).
In the VCI screening test, a potentiostat was used to measure the polarization resistance (Rp) of the X65 sample. Corrosion rate in the water phase (BLC rate) is proportional to the corrosion current density (icorr) which was then calculated by using a B constant value of 0.026 V/decade (icorr=B/Rp/S in which S is surface area of the sample).
A baseline test was performed in the absence of the VCI candidate compound. […] Dibutyl sulfide was used to compare the sulfide functional group versus the thiol functional group.
For the VCI screening tests, a 1 wt % NaCl solution was prepared and purged with CO2 for 2 hours at 25° C. before injecting the VCI candidate. […] After that the Open Circuit Potential (OCP) and Linear Polarization Resistance (LPR) were measured every 10 minutes during an exposure time of 3-4 hours. The pH of the solution was measured before and after adding the VCI candidate. Electrolyte resistance (ER) was measured by Electrochemical Impedance Spectroscopy (EIS).

[2] = Efficacy test of VCI candidates for top of the line corrosion (weight loss, ASTM G1; surface analysis); conditions: 1 wt % NaCl
Description: The temperatures of the bottom solution and gas phases were controlled by a heater, while temperature of the specimen at the top was controlled by cooling water. Through coil 20, a condenser 22 was used to prevent water and VCI vapor loss.
In the VCI efficacy test, corrosion rate of the specimen at the top (TLC rate) was measured by weight loss following the ASTM G1 standard. Sample surface was characterized by Scanning Electron Microscopy (SEM)/Energy Dispersive X-ray Spectroscopy (EDS).
1-hexanethiol, 1-decanethiol and 1-dodecanethiol were chosen based on the results in the VCI screening test, data from which will be shown below. In addition, the effect of acetic acid and MEG on the inhibition performance of the best VCI candidate was also taken into account.
For the efficacy tests of VCI candidates for TLC, 1 wt % NaCl was also prepared and purged with CO2 for 2 hours. In order to have a gas temperature of 65° C., the bottom solution was heated to 77° C. After that the selected concentration of the VCI candidates (Table 3) was added into the bulk solution. A weight loss specimen 24, after being ground (with up to 600 grit abrasive paper), was flush-mounted at the top of the experimental setup, controlling its temperature at 32° C. using cooling water. The weight loss sample and ER probe were added 0.1 hour after addition of the VCI candidate. […]

[3] = 400 ppmv VCI added before electrode insertion, CO2 saturated 1 wt % NaCl, 25° C., baseline −0.64 V

SMILES	Measured pH of solution [1]	OCP [1, 3]	OCP ([1]; 400 ppmv injected after electrode insertion, increased from −0.63 V) [V vs. Ag/AgCl]	Measured pH of the bottom solution ([2]; 100 ppmV VCI plus 500 ppmV acetic acid)	Measured pH of the bottom solution ([2]; 100 ppmV VCI, no acetic acid, 4.17 without VCI)
CCCCCCCCCCS [1-decanethiol]	3.91	about −0.56 V vs. Ag/AgCl	−0.56	3.32	4.19
CCCCCCCCCCCCS [1-dodecanethiol]	3.89				
CCCCCCS [1-hexanethiol]	3.90	−0.52 V vs. Ag/AgCl			
CCCCSCCCC [Dibutyl sulfide, reference compound]	3.93	did not significantly change			
